Measured values reported in patent publication EP0540099A1, “Water soluble camptothecin derivatives” (priority 1991, dated 1993).
At least one read-out could not be matched to a standard name with certainty.

System: HT-29 human colon tumor cells
Assay: Human colorectal adenocarcinoma HT-29 xenograft in vivo assay
Conditions: female NU/NU mice, HT-29 s.c. xenograft, optimal dose, subcutaneously twice a week for 5 weeks from day 14
Description: Female NU/NU mice weighing 21 ± 2g, are used for this modified version of the test described by B.C. Giovanella, et al., Science, 246 1046 (1989). Control and test animals are injected subcutaneously in the sub-scapular region with a suspension of 10⁶ viable HT-29 human colon tumor cells on day 0. Tumors are allowed to grow for 2 weeks prior to drug administration. For each drug, several doses are chosen based on its in vitro activity against topoisomerase I. Each dose level group contains 8 animals. The test compounds are prepared in either 0.1 M acetate buffer, pH 5 (vehicle "a") or 87.5% phosphate buffered saline, 12.375% dimethylsulfoxide, and 0.125% Tween 80 (trademark of ICI America for polyoxyethylenesorbitan monooleate) (vehicle "b") and are administered subcutaneously twice a week for 5 weeks beginning on day 14. Doses are given on a mg/kg basis according to the mean body weight for each cage.
Tumor weight is calculated from two perpendicular caliper measurements of the tumor using the formula, tumor weight = length x width² ÷ 2 [formula] in millimeters. For each animal, tumor weight is monitored over the course of the experiment. For each group, the results are expressed as the ratio of the mean tumor weight immediately after 5 weeks of treatment (day 50) divided by the mean tumor weight immediately before treatment (day 14). […]

SMILES: CC[C@@]1(O)C(=O)OCc2c1cc1n(c2=O)Cc2c-1nc1cc3c(cc1c2CN(C)C)OCCO3 [Example 4, 7-Dimethylaminomethylene-10, 11-ethylenedioxy-20(S)-camptothecin]
- in vivo Antitumor activity (tumor wt day-50/tumor wt day-14) (vehicle a: 0.1 M acetate buffer, pH 5): 1.3
- in vivo Antitumor activity (tumor wt day-50/tumor wt day-14) (vehicle b: 87.5% phosphate buffered saline, 12.375% dimethylsulfoxide, 0.125% Tween 80): 1.0
